Experimental data from patent US20200297725A1, “ALLOSTERIC BCR-ABL PROTEOLYSIS TARGETING CHIMERIC COMPOUNDS” (YALE UNIVERSITY, priority 2019, published 2020).
Some entries share one result that the patent states for a list of compounds.

Tested on: parental Ba/F3 cells
Assay: Cell proliferation / toxicity in Ba/F3 parental cells
Format: cell-based, murine
Details: FIG. 10D

## Cc1ncsc1-c1ccc(CNC(=O)[C@@H]2C[C@@H](O)CN2C(=O)[C@@H](NC(=O)COCCOc2ccc(-c3cc(Nc4ccc(OC(F)(F)F)cc4)ncn3)cc2)C(C)(C)C)cc1 [Compound 10]
  toxicity against parental Ba/F3 cells (none up to): > 10 µM
